Results deposited as PubChem BioAssay AID504774 (Drosophila RNAi Screening Center, 2011).

- Aim: 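Fly genes whose loss alters survival after alkylation damage to DNA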 (primary screen)
- Cell system: Drosophila Kc167 cells
- Knock-down reagent: long dsRNA against Drosophila genes, about 0.25 µg dsRNA per well
- Time to read-out: about 6 days: 3 days knock-down, then 3 days with or without MMS
- Treatment: methyl methanesulphonate 0.004% (w/v) for 3 days after knock-down
- Detection: 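ATP-dependent luminescence as a measure of live cells in MMS-exposed wells, quantile normalised within each plate, with replicate values also given as a mean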
- Reading the numbers: mean viability with MMS and viability with MMS: higher = more surviving cells after MMS
The screen tested about 23,000 reagents; below is an unselected part of those with a known target gene and a result. 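Values are quantile-normalised luminescence on an arbitrary scale; higher means more cells surviving MMS.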 Reagents against one gene are numbered here. A plus sign joins genes that one reagent is predicted to hit. No sequences are given here.

| Target gene | dsRNA no. | mean viability with MMS | viability with MMS, replicate 1 | viability with MMS, replicate 2 |
| --- | --- | --- | --- | --- |
| capu (cappuccino) | 1 | 3.57e6 | 4.15e6 | 3.96e6 |
| capu (cappuccino) | 2 | 3.62e6 | 4.11e6 | 4.09e6 |
| capu (cappuccino) | 3 | 3.46e6 | 3.91e6 | 3.94e6 |
| capu (cappuccino) | 4 | 3.76e6 | 4.30e6 | 4.28e6 |
| CG34286 | 1 | 3.58e6 | 4.15e6 | 3.97e6 |
| CG34286 | 2 | 3.51e6 | 3.92e6 | 4.06e6 |
| Mal-A7 (Maltase A7) | 1 | 3.59e6 | 3.99e6 | 4.12e6 |
| CG13482 | 1 | 3.79e6 | 4.29e6 | 4.18e6 |
| Prtl99C (Protamine-like 99C) | 1 | 3.48e6 | 3.97e6 | 3.87e6 |
| CG18418 | 1 | 3.56e6 | 4.05e6 | 4.03e6 |
| CG1738 | 1 | 3.57e6 | 4.05e6 | 4.03e6 |
| CG14965 | 1 | 3.76e6 | 4.26e6 | 4.27e6 |
| ATPsynGL (ATP synthase, subunit G-like) | 1 | 3.59e6 | 4.33e6 | 3.82e6 |
| CR42545 (pseudo) | 1 | 3.58e6 | 4.12e6 | 4.01e6 |
| CG7406 | 1 | 3.55e6 | 4.03e6 | 4.03e6 |
| Glyp (Glycogen phosphorylase) | 1 | 1.58e6 | 3.74e6 | 3.74e6 |
| raw | 1 | 3.39e6 | 3.89e6 | 3.77e6 |
| raw | 2 | 3.35e6 | 3.73e6 | 3.80e6 |
| CG3287 (retired record) | 1 | 3.67e6 | 4.22e6 | 4.00e6 |
| fs(1)Yb (female sterile (1) Yb) | 1 | 3.59e6 | 4.22e6 | 3.92e6 |
| disco (disconnected) | 1 | 3.43e6 | 3.87e6 | 3.87e6 |
| lft (lowfat) | 1 | 3.58e6 | 3.86e6 | 4.27e6 |
| Mvd (Mevalonate diphosphate decarboxylase) | 1 | 3.48e6 | 4.03e6 | 3.84e6 |
| CG45263 | 1 | 3.51e6 | 4.06e6 | 3.93e6 |
| CG45263 | 2 | 3.55e6 | 4.04e6 | 4.03e6 |
| CG45263 | 3 | 3.73e6 | 4.10e6 | 4.30e6 |
| CG45263 | 4 | 3.48e6 | 3.95e6 | 3.96e6 |
| Rsph3 (Radial spoke head protein 3) | 1 | 3.51e6 | 3.99e6 | 3.97e6 |
| Rsph3 (Radial spoke head protein 3) | 2 | 3.60e6 | 4.04e6 | 4.14e6 |
| Gr36a (Gustatory receptor 36a) | 1 | 3.38e6 | 3.89e6 | 3.90e6 |
| dia (diaphanous) | 1 | 3.55e6 | 4.09e6 | 3.96e6 |
| CG12581 | 1 | 3.57e6 | 4.04e6 | 4.05e6 |
| CG12581 | 2 | 3.76e6 | 4.18e6 | 4.23e6 |
| side (sidestep) | 1 | 3.76e6 | 4.22e6 | 3.91e6 |
| side (sidestep) | 2 | 3.62e6 | 4.00e6 | 4.20e6 |
| side (sidestep) | 3 | 3.60e6 | 4.03e6 | 4.13e6 |
| side (sidestep) | 4 | 3.67e6 | 4.19e6 | 4.13e6 |
| side (sidestep) | 5 | 3.56e6 | 4.06e6 | 4.01e6 |
| dj-1beta | 1 | 3.56e6 | 4.11e6 | 3.96e6 |
| CG42597 | 1 | 3.49e6 | 3.99e6 | 3.93e6 |
| ste24a (prenyl protease type I) | 1 | 3.36e6 | 3.84e6 | 3.82e6 |
| CG12567 | 1 | 3.60e6 | 4.01e6 | 4.12e6 |

The list goes on, starting with the last 6 of the part before.
| Target gene | dsRNA no. | mean viability with MMS | viability with MMS, replicate 1 | viability with MMS, replicate 2 |
| --- | --- | --- | --- | --- |
| side (sidestep) | 4 | 3.67e6 | 4.19e6 | 4.13e6 |
| side (sidestep) | 5 | 3.56e6 | 4.06e6 | 4.01e6 |
| dj-1beta | 1 | 3.56e6 | 4.11e6 | 3.96e6 |
| CG42597 | 1 | 3.49e6 | 3.99e6 | 3.93e6 |
| ste24a (prenyl protease type I) | 1 | 3.36e6 | 3.84e6 | 3.82e6 |
| CG12567 | 1 | 3.60e6 | 4.01e6 | 4.12e6 |
| ksr (kinase suppressor of ras) | 1 | 3.40e6 | 3.89e6 | 3.84e6 |
| haf (hattifattener) | 1 | 3.50e6 | 3.97e6 | 3.97e6 |
| dgt5 (dim gamma-tubulin 5) | 1 | 3.45e6 | 3.84e6 | 3.95e6 |
| mle (maleless) | 1 | 3.55e6 | 4.01e6 | 4.07e6 |
| sau (sauron) | 1 | 3.24e6 | 3.76e6 | 3.44e6 |
| CG14760 | 1 | 3.62e6 | 4.03e6 | 4.11e6 |
| CG31705 | 1 | 3.22e6 | 3.88e6 | 3.35e6 |
| Cpr65Ax2 + Cpr65Ax1 | 1 | 3.67e6 | 4.13e6 | 4.20e6 |
| Cpr65Ax2 + Cpr65Ax1 | 2 | 3.64e6 | 4.07e6 | 4.20e6 |
| Jheh3 (Juvenile hormone epoxide hydrolase 3) | 1 | 3.56e6 | 4.05e6 | 4.01e6 |
| CG2889 | 1 | 3.63e6 | 4.15e6 | 4.06e6 |
| GstD7 (Glutathione S transferase D7) | 1 | 3.53e6 | 4.08e6 | 4.02e6 |
| CG1986 | 1 | 3.36e6 | 3.82e6 | 3.83e6 |
| Sr-CIV (Scavenger receptor class C, type IV) | 1 | 3.62e6 | 4.18e6 | 4.01e6 |
| CG7655 | 1 | 3.71e6 | 4.16e6 | 4.19e6 |
| CG3589 | 1 | 3.22e6 | 2.74e6 | 3.74e6 |
| mRpS28 (mitochondrial ribosomal protein S28) | 1 | 3.73e6 | 4.24e6 | 4.18e6 |
| tau | 1 | 3.46e6 | 3.90e6 | 3.91e6 |
| tau | 2 | 3.56e6 | 4.14e6 | 3.95e6 |
| cno (canoe) | 1 | 3.62e6 | 4.32e6 | 3.85e6 |
| cno (canoe) | 2 | 2.86e6 | 3.54e6 | 3.56e6 |
| cno (canoe) | 3 | 3.32e6 | 3.75e6 | 3.80e6 |
| PolD2 (DNA polymerase delta subunit 2) | 1 | 3.34e6 | 3.76e6 | 3.83e6 |
| CG11158 | 1 | 3.50e6 | 3.95e6 | 3.98e6 |
| zf30C (zinc finger protein 30C) | 1 | 3.51e6 | 4.10e6 | 3.86e6 |
| Bacc (Bacchus) | 1 | 3.48e6 | 3.89e6 | 4.00e6 |
| Atg18a (Autophagy-related 18a) | 1 | 3.53e6 | 4.05e6 | 3.94e6 |
| rl (rolled) | 1 | 3.55e6 | 4.05e6 | 3.99e6 |
| rl (rolled) | 2 | 3.40e6 | 3.84e6 | 3.87e6 |
| rl (rolled) | 3 | 3.46e6 | 3.96e6 | 3.93e6 |
| CG9812 | 1 | 3.59e6 | 3.98e6 | 4.17e6 |
| alrm (astrocytic leucine-rich repeat molecule) | 1 | 3.20e6 | 3.68e6 | 3.64e6 |
| Obp58d (Odorant-binding protein 58d) | 1 | 3.65e6 | 3.97e6 | 4.29e6 |
| hiro (highroad) | 1 | 3.32e6 | 3.81e6 | 3.76e6 |
| Vsx2 (Visual system homeobox 2) | 1 | 3.76e6 | 4.23e6 | 4.17e6 |
| Vsx2 (Visual system homeobox 2) | 2 | 3.29e6 | 3.75e6 | 3.67e6 |
| Vsx2 (Visual system homeobox 2) | 3 | 3.64e6 | 4.11e6 | 4.14e6 |
| Vsx2 (Visual system homeobox 2) | 4 | 3.64e6 | 4.19e6 | 4.06e6 |
| Vsx2 (Visual system homeobox 2) | 5 | 3.51e6 | 3.88e6 | 4.12e6 |
| Vsx2 (Visual system homeobox 2) | 6 | 3.61e6 | 4.09e6 | 4.10e6 |
| Acyp (Acylphosphatase) | 1 | 3.54e6 | 4.05e6 | 3.99e6 |
| Uba5 (Ubiquitin-like activating enzyme 5) | 1 | 3.60e6 | 4.05e6 | 4.09e6 |
| LUBEL (Linear Ubiquitin E3 ligase) | 1 | 3.36e6 | 3.64e6 | 3.91e6 |
| fj (four-jointed) | 1 | 3.62e6 | 4.08e6 | 4.11e6 |
| Cyp6d2 (Cytochrome P450 6d2) | 1 | 3.74e6 | 4.08e6 | 4.01e6 |
